# Test results from the supplement of paper PMC11732987, “Enantioselective OTUD7B fragment discovery through chemoproteomics screening and high-throughput optimisation” (Communications Chemistry, 2025).
# Some of the results follow. The data scatter; read single values as rough.
# System: T1, NACAD C1152
# T1 sequence (whole entry): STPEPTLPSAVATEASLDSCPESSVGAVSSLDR
# Assay: log2 mean competition ratio of IA-DTB cysteine labelling (DMSO/compound) (log2 ratio); higher = stronger cysteine engagement by compound
# Conditions: 50 µM; treatment time: 4 h; cell line lysate: HEK293T
# Protocol: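 IA-DTB competitive cysteine chemoproteomics in HEK293T RIPA lysate. Lysates were treated with compound 29 or 30 at 50 or 200 µM for 4 h, then IA-DTB (500 µM, 1 h), trypsin-digested, NeutrAvidin-enriched and analysed by diaPASEF. Competition ratio = intensity DMSO / intensity compound (n=4 treated, n=64 DMSO); binding: mean log2 CR ≥ 1 and p ≤ 0.05 plus QC filters. Target is the cysteine site.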
row,Structure (SMILES),log2 mean competition ratio
1,O=C(CCl)N[C@@H]1CCCc2ccccc21,-0.528
2,O=C(CCl)N[C@H]1CCCc2ccccc21,0.174

# Same assay, conditions: 200 µM; treatment time: 4 h; cell line lysate: HEK293T
row,Structure (SMILES),log2 mean competition ratio
1,O=C(CCl)N[C@@H]1CCCc2ccccc21,0.145
2,O=C(CCl)N[C@H]1CCCc2ccccc21,-0.182
